Results are given in words; binding and its absence hold for the method and conditions named. For some of these results: Binding seen in cells or lysates may run through a third protein. Some results given as binding are weak or reduced against the parent protein; the word gives no strength. For some of these results: Tags and fused reporters may be left off the sequences shown. Blank lines part the entries; values can stand above or below the binder they belong to.
Columns and labels:
[1] = target: Nup58(239–415), entire ordered region of Nup58 from Rattus norvegicus, His6 tag cleaved (Rattus norvegicus) (UniProt P70581); assay: SEC-MALS; triple complex at 2 mg/ml and 5 mg/ml; Superdex200 10/300 GL with MALS and refractive index detectors; 4 °C; both purified
[2] = target: Nup58(239–415), entire ordered region of Nup58 from Rattus norvegicus, His6 tag cleaved (Rattus norvegicus) (UniProt P70581); assay: SEC; purified triple complex at increasing concentrations on Superdex200 10/300 GL; 10 mM Tris-Cl pH 8.0, 150 mM NaCl, 1 mM DTT (buffer A); 4 °C; both purified
[3] = target: His6-tagged Nup58, full-length ordered region (239–415) (Rattus norvegicus) (UniProt P70581); assay: pull-down; deletion constructs of the three channel nups co-expressed; complexes purified by affinity pulldown via the His6 tag of Nup58; eluates analysed by SDS-PAGE
[4] = target: Nup58(239–415), entire ordered region of Nup58 from Rattus norvegicus, His6 tag cleaved (Rattus norvegicus) (UniProt P70581); assay: SEC; competition: preassembled triple complex (1.5 mg/ml) incubated with Nup54 (453–494) wild type or H469F/Q473L (0.6 mg/ml), then size-exclusion chromatography and SDS-PAGE of column fractions; both purified
[5] = target: Nup58(239–415), entire ordered region of Nup58 from Rattus norvegicus, His6 tag cleaved (Rattus norvegicus) (UniProt P70581); assay: native gel or EMSA; fractions across the SEC peak of the triple complex run on discontinuous native PAGE (Tris-glycine pH 8.0, 20 V, 4 °C, 14 h); bands cut out, eluted and analysed by SDS-PAGE with silver staining; both purified
[6] = target: T1, MBP-Nup62(322–525) from Rattus norvegicus (Rattus norvegicus) (UniProt P17955); assay: matrix-assisted depletion assay; MBP-Nup62·Nup54·Nup58 complex held on amylose resin in buffer A, incubated at 4 °C with increasing amounts of wild-type Nup54 (453–494); Nup58 released into the supernatant read by absorbance at 280 nm; both purified
T1 sequence: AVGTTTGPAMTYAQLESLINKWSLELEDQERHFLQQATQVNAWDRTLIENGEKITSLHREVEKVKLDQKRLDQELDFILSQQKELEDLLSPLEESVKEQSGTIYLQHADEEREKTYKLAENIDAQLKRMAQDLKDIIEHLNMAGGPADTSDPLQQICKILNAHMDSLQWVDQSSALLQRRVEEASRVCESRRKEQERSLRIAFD

Protein sequences, listed by entry. Tags and fused reporters are not part of them. Lines headed by an entry give the natural chain unless they say otherwise; changes in a name come on top. Chains listed by the source or under a name are the forms on record and can include a tag or linker. Residues count along the entry.
UniProt P70581: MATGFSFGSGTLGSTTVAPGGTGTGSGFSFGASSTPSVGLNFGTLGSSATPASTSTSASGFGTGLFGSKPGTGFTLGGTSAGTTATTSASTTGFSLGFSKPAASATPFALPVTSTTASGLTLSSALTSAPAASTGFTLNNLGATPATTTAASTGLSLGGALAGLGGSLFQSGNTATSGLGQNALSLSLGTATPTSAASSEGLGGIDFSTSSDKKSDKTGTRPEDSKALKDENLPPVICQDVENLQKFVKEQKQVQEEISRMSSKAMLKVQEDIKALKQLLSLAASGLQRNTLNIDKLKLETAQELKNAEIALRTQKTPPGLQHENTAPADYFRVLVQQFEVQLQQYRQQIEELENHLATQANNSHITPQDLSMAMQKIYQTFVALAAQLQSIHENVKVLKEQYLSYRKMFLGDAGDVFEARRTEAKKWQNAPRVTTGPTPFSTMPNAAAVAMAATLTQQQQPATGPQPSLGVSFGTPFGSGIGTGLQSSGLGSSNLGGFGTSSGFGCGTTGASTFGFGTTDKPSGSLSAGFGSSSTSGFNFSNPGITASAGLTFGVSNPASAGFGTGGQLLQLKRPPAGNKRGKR
His6-tagged Nup58, full-length ordered region (239–415): residues 239-415 of P70581

[7] = target: Nup58(239–415), entire ordered region of Nup58 from Rattus norvegicus, His6 tag cleaved (Rattus norvegicus) (UniProt P70581); assay: as above
[8] = target: T2, Nup54(346–510), entire ordered region of Nup54 from Rattus norvegicus (Rattus norvegicus) (UniProt P70582); assay: SEC-MALS; triple complex at 2 mg/ml and 5 mg/ml; Superdex200 10/300 GL with MALS and refractive index detectors; 4 °C; both purified
T2 sequence: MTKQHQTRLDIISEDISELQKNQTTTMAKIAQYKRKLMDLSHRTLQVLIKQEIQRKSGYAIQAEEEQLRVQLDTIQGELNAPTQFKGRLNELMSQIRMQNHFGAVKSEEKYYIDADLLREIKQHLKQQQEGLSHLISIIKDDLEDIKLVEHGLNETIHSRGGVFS

[9] = target: T2, Nup54(346–510), entire ordered region of Nup54 from Rattus norvegicus (Rattus norvegicus); assay: SEC; purified triple complex at increasing concentrations on Superdex200 10/300 GL; 10 mM Tris-Cl pH 8.0, 150 mM NaCl, 1 mM DTT (buffer A); 4 °C; both purified
[10] = target: T2, Nup54(346–510), entire ordered region of Nup54 from Rattus norvegicus (Rattus norvegicus); assay: SEC; triple complex (5 mg/ml) on size-exclusion chromatography in the presence of 65 mM n-octyl-β-D-glucopyranoside, SDS-PAGE of column fractions; both purified
[11] = target: T2, Nup54(346–510), entire ordered region of Nup54 from Rattus norvegicus (Rattus norvegicus); assay: pull-down; deletion constructs of the three channel nups co-expressed; complexes purified by affinity pulldown via the His6 tag of Nup58; eluates analysed by SDS-PAGE
[12] = target: T2, Nup54(346–510), entire ordered region of Nup54 from Rattus norvegicus (Rattus norvegicus); assay: native gel or EMSA; fractions across the SEC peak of the triple complex run on discontinuous native PAGE (Tris-glycine pH 8.0, 20 V, 4 °C, 14 h); bands cut out, eluted and analysed by SDS-PAGE with silver staining; both purified

binding [1]: binds
binding [2]: binds
binding [3]: binds
binding [4]: binds
binding [5]: binds
binding [6]: binds
binding [7]: binds
B1: Nup54(346–510), entire ordered region of Nup54 from Rattus norvegicus (domain or fragment, UniProt P70582 346-510)
chain: T2 sequence

binding [8]: binds
binding [9]: binds
binding [10]: binds
binding [11]: binds
binding [12]: binds
B2: Nup62(322–525), entire ordered region of Nup62 from Rattus norvegicus (domain or fragment, UniProt P17955 322-525)
chain: T1 sequence

binding [4]: no binding (tested: 0.6 mg/ml)
Binder: EEKYYIDADLLREIKQFLKQLQEGLSHLISIIKDDLEDIKLV (domain or fragment, UniProt P70582 453-494) [Nup54 (453–494) mutant H469F/Q473L]
